PubChem BioAssay AID652243 | Drosophila RNAi Screening Center, 2013
The deposit covers about 24,000 reagents; this is an unselected part of those that have a named target and a result. In the full data, 246 (1%) got an active call. 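Plates not normalised; calls are printed but the firefly/Renilla ratio behind them is not deposited; fold cut for lowering reported inconsistently.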 Raw values vary from plate to plate and are shown uncorrected. A number with no mark means an inactive call. Reagents against one gene are numbered here. The record does not give: the amount of reagent.

- Aim: 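Fly regulators of androgen-dependent reporter output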 (primary screen)
- System: Drosophila S2R+ cells
- Reagents: long dsRNA against Drosophila genes
- Duration: 72 h (48 h, then 24 h hormone)
- Treatment: synthetic androgen R1881 at 10 nM for 24 h
- Measured: 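Per-well raw luminescence of the androgen-driven firefly reporter and of the Renilla control, two replicates each, without normalisation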
- Scale: firefly reporter light: higher = more light from androgen-responsive reporter; Renilla control light: higher = more constitutive control signal (cell number, transfection)
- Active means: 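Hit when the log firefly-to-Renilla ratio dropped or increased by a fixed fold versus the mean of GFP or LacZ controls across duplicate plates; lowering cut given as 1.5 and as 3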
- Calls: active = hit: reporter lowered or raised; inactive = no hit

gene,reagent,"firefly reporter light, replicate 1","firefly reporter light, replicate 2","Renilla control light, replicate 1","Renilla control light, replicate 2"
Ir56a,1,2.31e5,2.21e5,4.54e5,1.23e5
Ir56a,2,3.31e5,4.76e5,1.56e6,1.20e6
PIG-O,1,4.27e5,3.74e5,5.24e5,5.28e5
Neurl4,1,6.43e5,7.27e5,1.16e6,1.11e6
stl,1,4.16e5,4.96e5,1.16e6,1.25e6
DIP-delta,1,1.88e5,1.56e5,1.70e6,1.61e6
DIP-delta,2,3.06e5,2.63e5,2.94e6,2.37e6
RpL27,1,1.32e5,1.27e5,1.28e6,9.86e5
RpL27,2,2.29e5,2.67e5,5.82e5,5.32e5
Tsp42Ea,1,2.98e5,3.53e5,1.52e6,1.36e6
Tsp42Ea,2,2.92e5,2.71e5,1.85e6,1.28e6
Nurf-38,1,2.24e5,1.47e5,1.25e6,1.07e6
Nurf-38,2,3.19e5,2.91e5,1.17e6,5.64e5
CG43084,1,2.78e5,2.45e5,2.73e6,2.21e6
Obp19d,1,3.36e5,1.91e5,1.53e6,8.39e5
Cpr56F,1,77307,80899,9.19e5,8.14e5
Cpr56F,2,1.18e6,1.01e6,9.98e5,1.22e6
Jon65Aiv,1,2.87e5,2.44e5,2.39e6,3.29e6
Jon65Aiv,2,8.45e5,6.42e5,7.84e5,8.26e5
CG41527 (retired record),1,9.40e5,6.71e5,1.55e6,1.36e6
CG13066,1,3.29e5,3.12e5,3.02e6,2.09e6
CG5107,1,91697,81581,3.42e5,5.82e5
CG32718,1,8.83e5,7.67e5,1.62e6,1.16e6
betaTub56D,1,57969,1.08e5,7.33e5,1.23e6
betaTub56D,2,3.83e5,5.20e5,5.80e5,6.64e5

Records listed so far whose target name begins with C or c (7):
gene,reagent,"firefly reporter light, replicate 1","firefly reporter light, replicate 2","Renilla control light, replicate 1","Renilla control light, replicate 2"
CG43084,1,2.78e5,2.45e5,2.73e6,2.21e6
Cpr56F,1,77307,80899,9.19e5,8.14e5
Cpr56F,2,1.18e6,1.01e6,9.98e5,1.22e6
CG41527 (retired record),1,9.40e5,6.71e5,1.55e6,1.36e6
CG13066,1,3.29e5,3.12e5,3.02e6,2.09e6
CG5107,1,91697,81581,3.42e5,5.82e5
CG32718,1,8.83e5,7.67e5,1.62e6,1.16e6
